Results are given in words; binding and its absence hold for the method and conditions named. In cells and extracts the contact can be indirect. Some binding calls cover weakened binding; strength is not graded here. For some of these results: Sequences can lack the tags named with a protein.

Protein sequences, listed by entry. Tags and fused reporters are not part of them.
UniProt P31267: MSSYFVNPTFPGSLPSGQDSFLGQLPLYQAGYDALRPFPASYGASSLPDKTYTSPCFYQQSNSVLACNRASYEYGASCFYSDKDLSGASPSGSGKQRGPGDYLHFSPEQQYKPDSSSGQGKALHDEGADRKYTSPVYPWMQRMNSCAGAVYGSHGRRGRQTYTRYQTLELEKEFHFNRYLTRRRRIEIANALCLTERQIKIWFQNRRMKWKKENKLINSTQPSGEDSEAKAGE

One experiment deals with T1, HA-tagged PBX2 (human) (UniProt P40425).
T1 sequence: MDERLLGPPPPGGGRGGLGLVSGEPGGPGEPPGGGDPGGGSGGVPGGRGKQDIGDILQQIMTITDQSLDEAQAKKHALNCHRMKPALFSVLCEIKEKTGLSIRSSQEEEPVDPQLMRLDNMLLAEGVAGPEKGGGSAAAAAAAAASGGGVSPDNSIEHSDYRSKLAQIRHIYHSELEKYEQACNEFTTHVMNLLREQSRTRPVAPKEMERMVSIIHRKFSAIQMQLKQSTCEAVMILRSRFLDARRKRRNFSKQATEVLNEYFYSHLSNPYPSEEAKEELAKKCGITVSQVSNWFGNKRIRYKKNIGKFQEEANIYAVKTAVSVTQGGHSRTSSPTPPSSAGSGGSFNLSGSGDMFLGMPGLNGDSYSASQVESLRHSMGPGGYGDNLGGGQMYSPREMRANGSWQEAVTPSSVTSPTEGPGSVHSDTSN
Kind of experiment: co-IP; HOXA6-Flag and PBX2-HA co-transfected into AGS and BCG-823 cells; whole-cell extracts precipitated with anti-Flag and blotted with anti-HA, or precipitated with anti-HA and blotted with anti-Flag (normal mouse IgG as control).

The target of experiment [1] is T2, PBX2 (human (endogenous in GC cell lines)) (UniProt P40425).
T2 sequence: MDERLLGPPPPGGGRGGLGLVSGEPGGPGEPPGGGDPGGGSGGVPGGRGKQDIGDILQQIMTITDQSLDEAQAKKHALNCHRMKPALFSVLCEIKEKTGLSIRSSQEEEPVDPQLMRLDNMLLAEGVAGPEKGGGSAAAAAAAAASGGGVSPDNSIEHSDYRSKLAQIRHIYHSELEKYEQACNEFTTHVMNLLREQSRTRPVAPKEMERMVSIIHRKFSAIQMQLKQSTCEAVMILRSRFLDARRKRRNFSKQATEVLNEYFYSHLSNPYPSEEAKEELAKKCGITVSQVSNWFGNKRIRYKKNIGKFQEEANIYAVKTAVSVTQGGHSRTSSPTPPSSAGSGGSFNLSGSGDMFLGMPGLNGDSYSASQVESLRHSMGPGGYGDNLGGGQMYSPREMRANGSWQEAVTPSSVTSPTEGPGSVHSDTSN
As to the kind of experiment: co-IP; endogenous proteins; whole-cell lysate of GC cells precipitated with anti-HOXA6 or anti-PBX2 (normal mouse IgG as control), blotted with the other antibody; 3 ug antibody and protein agarose beads, 4 C, 3 h.

Experiment [2] deals with HOXA6 (human (endogenous in GC cell lines)) (UniProt P31267). The experiment is described as above.
The target in experiment [3] is Flag-tagged HOXA6 (human) (UniProt P31267). As to the kind of experiment: co-IP; HOXA6-Flag and PBX2-HA co-transfected into AGS and BCG-823 cells; whole-cell extracts precipitated with anti-Flag and blotted with anti-HA, or precipitated with anti-HA and blotted with anti-Flag (normal mouse IgG as control).

As for “Flag-tagged HOXA6 (from UniProt P31267 1-233)”, in the experiment with HA-tagged PBX2 (human), the binding entry was “binds”.
In the case of HOXA6 (from UniProt P31267 1-233), the binding result in experiment [1] is reported as “binds”.

B1: PBX2 (protein, UniProt P40425 1-430)
chain: MDERLLGPPPPGGGRGGLGLVSGEPGGPGEPPGGGDPGGGSGGVPGGRGKQDIGDILQQIMTITDQSLDEAQAKKHALNCHRMKPALFSVLCEIKEKTGLSIRSSQEEEPVDPQLMRLDNMLLAEGVAGPEKGGGSAAAAAAAAASGGGVSPDNSIEHSDYRSKLAQIRHIYHSELEKYEQACNEFTTHVMNLLREQSRTRPVAPKEMERMVSIIHRKFSAIQMQLKQSTCEAVMILRSRFLDARRKRRNFSKQATEVLNEYFYSHLSNPYPSEEAKEELAKKCGITVSQVSNWFGNKRIRYKKNIGKFQEEANIYAVKTAVSVTQGGHSRTSSPTPPSSAGSGGSFNLSGSGDMFLGMPGLNGDSYSASQVESLRHSMGPGGYGDNLGGGQMYSPREMRANGSWQEAVTPSSVTSPTEGPGSVHSDTSN
B1: the binding entry in experiment [2] is on record as “binds”.

B2: HA-tagged PBX2 (protein, UniProt P40425 1-430)
chain: MDERLLGPPPPGGGRGGLGLVSGEPGGPGEPPGGGDPGGGSGGVPGGRGKQDIGDILQQIMTITDQSLDEAQAKKHALNCHRMKPALFSVLCEIKEKTGLSIRSSQEEEPVDPQLMRLDNMLLAEGVAGPEKGGGSAAAAAAAAASGGGVSPDNSIEHSDYRSKLAQIRHIYHSELEKYEQACNEFTTHVMNLLREQSRTRPVAPKEMERMVSIIHRKFSAIQMQLKQSTCEAVMILRSRFLDARRKRRNFSKQATEVLNEYFYSHLSNPYPSEEAKEELAKKCGITVSQVSNWFGNKRIRYKKNIGKFQEEANIYAVKTAVSVTQGGHSRTSSPTPPSSAGSGGSFNLSGSGDMFLGMPGLNGDSYSASQVESLRHSMGPGGYGDNLGGGQMYSPREMRANGSWQEAVTPSSVTSPTEGPGSVHSDTSN
B2: the binding entry in experiment [3] is reported as “binds”.

The values are drawn from PMC7993744.
